Assay results as given in publication PMC7819943, “Rice protein-binding microarrays: a tool to detect cis-acting elements near promoter regions in rice”.
This is one part of the list.

The sequences below were run against T1, OsSMF1 (Oryza sativa, UniProt Q6ZLB0 1-436) (assay: protein-binding microarray (RPBM); PBS, 2% BSA, 51.3 ng/ul salmon testes DNA, 50 uM zinc acetate, 200 nM TF, 25 C, 1 h; high values mean tight binding). Details: protein: recombinant; tags: N-terminal polyhistidine and DsRed monomer fusion (pET32a); chain copies: 2; label: CyDye5-dUTP incorporated in the synthesized complementary strand; 3' TTTTT single-stranded linker to array surface; dsDNA, one strand shown.
T1 sequence: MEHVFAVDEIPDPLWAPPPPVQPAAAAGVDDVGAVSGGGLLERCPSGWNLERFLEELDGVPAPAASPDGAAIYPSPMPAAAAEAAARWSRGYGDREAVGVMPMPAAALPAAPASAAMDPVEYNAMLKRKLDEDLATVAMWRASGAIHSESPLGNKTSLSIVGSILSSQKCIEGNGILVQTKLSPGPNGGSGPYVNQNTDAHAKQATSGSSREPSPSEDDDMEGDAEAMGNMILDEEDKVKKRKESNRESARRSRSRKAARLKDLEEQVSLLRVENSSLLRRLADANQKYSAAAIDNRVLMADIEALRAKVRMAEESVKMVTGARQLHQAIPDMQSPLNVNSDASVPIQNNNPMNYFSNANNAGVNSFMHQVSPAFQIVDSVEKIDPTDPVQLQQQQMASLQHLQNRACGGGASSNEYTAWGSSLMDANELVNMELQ
In short: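 Ni–NTA purification followed expression in E. coli BL21-CodonPlus of transcription factors fused N-terminally to a polyhistidine tag and DsRed. At 200 nM in PBS with 2% BSA, salmon testes DNA and 50 µM zinc acetate, the protein was incubated for 1 h at 25 °C with a custom Agilent array that had been primer-extended with Cy5-dUTP and blocked with 2% BSA. After washing, the array was read on an Axon 4000B scanner. The binding signal is per-feature fluorescence intensity in arbitrary units.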
With “ATCGTACCATAGAAGCCTTATGGACGACGGTTGGTTTCTCCGGAGTCACCTAGTGCAG” the binding signal was 3290 fluorescence intensity (a.u.).
With “ACCTTGTCTCCTTACCCAGCGTTTCCAACCATGCCTAACTCGGAGTCACCTAGTGCAG” the binding signal was 3410 fluorescence intensity (a.u.).
In the case of “CCGTCCACCACCGCCTTTCTTCGATCCGTCGCCACGCCCTCGGAGTCACCTAGTGCAG”, the binding signal is reported as 3280 fluorescence intensity (a.u.).
In the case of “CATCTTGTTAATTAGTGGATGATGATGTGGCATCTATGCACGGAGTCACCTAGTGCAG”, the binding signal is reported as 12900 fluorescence intensity (a.u.).
For “AAATCTATATTTATGTTTGTGTGGTTCCTTAGTTAAATCACGGAGTCACCTAGTGCAG”, the binding signal was 3850 fluorescence intensity (a.u.).
“GCGATGGGTATATCACCACGTATAGTCCATAGTCTATACGCGGAGTCACCTAGTGCAG” was tested, and the binding signal was 3190 fluorescence intensity (a.u.).
In the case of “GTTATGTTATTATCCCACCCGAGCCACGTTATACTACCCACGGAGTCACCTAGTGCAG”, the binding signal is reported as 5140 fluorescence intensity (a.u.).
For “TTGTCAAATAATTAAAACAAATCATGAGTATATTAAGAATCGGAGTCACCTAGTGCAG”, the binding signal was 3240 fluorescence intensity (a.u.).
In the case of “GATATCCATGTGTATGTCAATGTCACGTGATATGTCTTGTCGGAGTCACCTAGTGCAG”, the binding signal is reported as 5700 fluorescence intensity (a.u.).
In the case of “TTTCCTGGGCTATGTTGCTGACCAAGCAATGAAGTTAAAACGGAGTCACCTAGTGCAG”, the binding signal is reported as 4300 fluorescence intensity (a.u.).
For “GGACGGACCACCCGCACCTCTTCCGCGTCAACCACCACCGCGGAGTCACCTAGTGCAG”, the binding signal was 3260 fluorescence intensity (a.u.).
For “CAAACAAGGAATTAATAGTCCATAACACAATATCTCGTCGCGGAGTCACCTAGTGCAG”, the binding signal was 17000 fluorescence intensity (a.u.).
For “TGGAAGTTCTCCGCATCATAAACGAGCCTACTGCAGCATCCGGAGTCACCTAGTGCAG”, the binding signal was 3240 fluorescence intensity (a.u.).
For “GGAGCGCGGACTCGCCGGCCAGCCGCGTCACGCGCTGGCGCGGAGTCACCTAGTGCAG”, the binding signal was 6650 fluorescence intensity (a.u.).
With “TAAGTGATTTTAGTTAGATGGGACACATCATATTATTATGCGGAGTCACCTAGTGCAG” the binding signal was 3530 fluorescence intensity (a.u.).
In the case of “CTTGCCGCCGCCGCGTCAGCTTCCACCGCCGCCGCCGCCGCGGAGTCACCTAGTGCAG”, the binding signal is reported as 5540 fluorescence intensity (a.u.).
In the case of “AAGTGGGTGAGTCCAATAGGTGTGCACGTGAGGGGAGGGGCGGAGTCACCTAGTGCAG”, the binding signal is reported as 6340 fluorescence intensity (a.u.).
With “CGGCGCCTAGACTGCGTATCGTAGCTGTCGAACGTGTCGTCGGAGTCACCTAGTGCAG” the binding signal was 3640 fluorescence intensity (a.u.).
“GTGTGTTTGGAATGAGAAATGTGGGGTGGGATTGGAATTACGGAGTCACCTAGTGCAG” was tested, and the binding signal was 4040 fluorescence intensity (a.u.).
For “ATAATGACGCGTTCAATACATATACTCAGTACGTGCTACTCGGAGTCACCTAGTGCAG”, the binding signal was 3600 fluorescence intensity (a.u.).
For “CGGGGTTGCAGAATTTGGTGGTCCTACGTGGTGGCGGCACCGGAGTCACCTAGTGCAG”, the binding signal was 6010 fluorescence intensity (a.u.).
“TTAAAACGCATCAAGATTATAAGAGCCAAGAGAAATTGCACGGAGTCACCTAGTGCAG” was tested, and the binding signal was 3520 fluorescence intensity (a.u.).
“TTCAATCGTACCACAATGTAGCATGTGTCATGAGCAGAAACGGAGTCACCTAGTGCAG” was tested, and the binding signal was 5210 fluorescence intensity (a.u.).
“GCTTCGAGCCTTCCTTGTCCAGCGTGGGGCGGGGCACTCCCGGAGTCACCTAGTGCAG” was tested, and the binding signal was 3840 fluorescence intensity (a.u.).
In the case of “GTCCTCCTTAAAACATTAAGTGGTCATCAGTCACTAACGACGGAGTCACCTAGTGCAG”, the binding signal is reported as 3820 fluorescence intensity (a.u.).
“GGTTCTTTGCGGCATACGACGGGAATGTTGGGTCCCACGTCGGAGTCACCTAGTGCAG” was tested, and the binding signal was 3570 fluorescence intensity (a.u.).
With “GCGTATGCCGGTGGATTAGGTTTCGAGGGTGGATCCAGTGCGGAGTCACCTAGTGCAG” the binding signal was 17800 fluorescence intensity (a.u.).
“CTAGATGCCATCAGATGTGTCAGCTTGGTGCCGCATATCACGGAGTCACCTAGTGCAG” was tested, and the binding signal was 5540 fluorescence intensity (a.u.).
With “TATGGATGGGTTTTATTAATAGTCTACGTTTAATATTTATCGGAGTCACCTAGTGCAG” the binding signal was 4490 fluorescence intensity (a.u.).
For “TCATCAGGTAAGTCCACACTTGCCGCAGGTGAGTCAGTCGCGGAGTCACCTAGTGCAG”, the binding signal was 5290 fluorescence intensity (a.u.).
With “GCCACGAGTTCCACGGCCGCGGCGTCGTCGTCGTCGTCGTCGGAGTCACCTAGTGCAG” the binding signal was 3170 fluorescence intensity (a.u.).
With “TATTGCTGAGGATAATGGTATAATGATGTATCCCATTCGACGGAGTCACCTAGTGCAG” the binding signal was 3760 fluorescence intensity (a.u.).
“CGTCATGCTACTCACTGACGTCATCATCGTCTGGGCTGCCCGGAGTCACCTAGTGCAG” was tested, and the binding signal was 19000 fluorescence intensity (a.u.).
For “GGACAGTTGAGTCATTCTACTGATGCTTTGGCCGGGGTGGCGGAGTCACCTAGTGCAG”, the binding signal was 3340 fluorescence intensity (a.u.).
In the case of “TCTCGGCCCAATAAGACCGAGTCAGCATGGGCTTCCATCTCGGAGTCACCTAGTGCAG”, the binding signal is reported as 8810 fluorescence intensity (a.u.).
In the case of “GCAAGCGGCGGCGGTGTCACCATCCTCCCAGGCTACGGCTCGGAGTCACCTAGTGCAG”, the binding signal is reported as 3150 fluorescence intensity (a.u.).
With “CTCTCCCTCTCGCGTGTCCATTTCACGAATTCCTCGTCTCCGGAGTCACCTAGTGCAG” the binding signal was 4240 fluorescence intensity (a.u.).
“GTCCAAAACTGCGGCCATCGCCGTCATCCGGTAAGCGGAACGGAGTCACCTAGTGCAG” was tested, and the binding signal was 3580 fluorescence intensity (a.u.).
In the case of “AGAGTTAGGGGTGCATAATTTACAGCCAGGCTCCTTGAGACGGAGTCACCTAGTGCAG”, the binding signal is reported as 5700 fluorescence intensity (a.u.).
For “TATATATATATATATATATATATATGAAAGTTTTATTCATCGGAGTCACCTAGTGCAG”, the binding signal was 3450 fluorescence intensity (a.u.).
“CATATGTCCACGGCTCCAATATAATATCACCAATGGCAATCGGAGTCACCTAGTGCAG” was tested, and the binding signal was 36100 fluorescence intensity (a.u.).
With “GTCCGTCTTGTTTTCTCCTGCGTCACAATTGTCCCGTATTCGGAGTCACCTAGTGCAG” the binding signal was 4280 fluorescence intensity (a.u.).
